Measurements as given in article PMC12141670.
No constants are given. Whether binding was seen depends on the method and setting. A result given as binding can be weak or reduced; the word gives no strength.

Sequences of proteins named here, by UniProt entry; tags and fusion partners are left off. A change or cut given only in a name is not applied to a line headed by its entry.
UniProt Q95X71: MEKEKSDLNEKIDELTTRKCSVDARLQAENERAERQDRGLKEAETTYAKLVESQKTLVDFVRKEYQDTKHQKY

Biological target: SSNA-1 (C. elegans ortholog of Sjogren's Syndrome Nuclear Antigen 1) (C. elegans) (UniProt Q95X71)
Assay: co-sedimentation; purified proteins incubated alone or together for 10 min at room temperature; 1.25 μM ZYG-1 or BSA, 10 μM SSNA-1 filaments or GMPCPP microtubules; 30 μL; 80,000 rpm (278,088 × g), TLA-120.2, 10 min, 25 °C; supernatant and pellet by SDS-PAGE and immunoblot; SSNA-1 in 50 mM phosphate pH 7.5, 150 mM NaCl, 10% glycerol, 1 mM DTT; both purified

binding: binds
B1: ZYG-1 (enzyme, UniProt Q9GT24 1-706)
chain: MSGGKSGSRLSAYSHLKEIGKGGFGVVYAAQRENGEKVAIKRIDKKVPKNRVWTEIQTMKELKKSKYVVEFYEDFVEDGYTYIVMELCEGGSLQAYVREHGALDDATAVHVLRQLISAVSFMHRVNVIHRDLSAGNVFIKDSKKKKMTVKLGDFGLATTLGRGETTCTIVGTPGFIAPQVYDQEYTQSADVYSLGAVLYTMLTARNPPPKGLPPTCGMSPNAARLVEQMMDTDAKKRIPLTQIVLSEFMYENTNENAVIFSREHSRDGRRQRSREPVRSSRDDRSRDGRALIRSSSQPAHSGRAPLSNRPIHDRMPSTSSRGFDSERGRERDRDSGRGTVPPSREDRNRSQLWPIRMDRLEGQRVCTAGGRYIVELDTRCRFEVAAQGNFVKRILIVEVDEMVQTVYVHRIPDRTVRGRNGEEELITLTNNPFVYTSYSQMPKEVQNDYMRLQKMVAVTISGRVAKVTFRRPSQFPDAQAQLMENGDLRIKLPRSVIVRKMDNGEIFNCIDGIATQKQAVSGITLTKVNEVYKYLIRFEQCLNGMDRGMVCFPIVFSAGTNMVGSSPSSLMPSGSSQTSRFPFSNLSNNQPSLVPHSAPFLTKPTSSQRASSANVQRRVSTDENSSPSVAPSKYKIKIDPTTQKVRSIQATDGRVLRCSTSKADQFIFTDPAIRPDDQRFMRTDRVPDRASEMLHTLCERMRKLHQ
